Cleaved PARP in drug-treated melanoma cells

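Human melanoma cell lines in 1,536-well plates were treated with a pair of drugs for 72 h, then fixed, stained and imaged. Values are the share of nuclei positive for cleaved PARP as a percentage of the same share in the DMSO control: 100 is the control level, higher means more apoptosis. Every drug was used at one fixed concentration, the higher of two screened. The file gives one value for each pair and line, without errors, so small differences may be noise. The marker varies much from line to line, for technical or biological reasons.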 An unselected part of the screen is shown.

Every entry is a combination with stibogluconate at 10 µM: O=C(O)[C@@H]1[O][Sb](=[O])([O][Sb]2(=[O])[O][C@H]([C@H](O)CO)[C@H](O)[C@H](C(=O)O)[O]2)[O][C@H]([C@H](O)CO)[C@@H]1O (some centres undefined)

Compounds and concentrations:
vatalanib: Clc1ccc(Nc2nnc(Cc3ccncc3)c3ccccc23)cc1 at 10 µM
everolimus: CO[C@H]1C[C@@H]2CC[C@@H](C)[C@@](O)(O2)C(=O)C(=O)N2CCCC[C@H]2C(=O)O[C@H]([C@H](C)C[C@@H]2CC[C@@H](OCCO)[C@H](OC)C2)CC(=O)[C@H](C)/C=C(\C)[C@@H](O)[C@@H](OC)C(=O)[C@H](C)C[C@H](C)/C=C/C=C/C=C/1C at 0.1 µM
dasatinib: Cc1nc(Nc2ncc(C(=O)Nc3c(C)cccc3Cl)s2)cc(N2CCN(CCO)CC2)n1 at 0.02 µM
AS-252424: O=C1NC(=O)/C(=C/c2ccc(-c3ccc(F)cc3O)o2)S1 at 5 µM
darinaparsin: C[As](C)SC[C@H](NC(=O)CC[C@H](N)C(=O)O)C(=O)NCC(=O)O at 2 µM
nutlin-3: COc1ccc(C2=N[C@@H](c3ccc(Cl)cc3)[C@@H](c3ccc(Cl)cc3)N2C(=O)N2CCNC(=O)C2)c(OC(C)C)c1 at 0.5 µM
embelin: CCCCCCCCCCCC1=C(O)C(=O)C=C(O)C1=O at 6 µM
GW2580: COc1ccc(COc2ccc(Cc3cnc(N)nc3N)cc2OC)cc1 at 5 µM
GW0742: Cc1cc(SCc2sc(-c3ccc(C(F)(F)F)c(F)c3)nc2C)ccc1OCC(=O)O at 10 µM
sunitinib: CCN(CC)CCNC(=O)c1c(C)[nH]c(/C=C2\C(=O)Nc3ccc(F)cc32)c1C at 2 µM
tanespimycin: C=CCNC1=C2C[C@@H](C)C[C@H](OC)[C@H](O)[C@@H](C)/C=C(\C)[C@H](OC(N)=O)[C@@H](OC)/C=C\C=C(/C)C(=O)NC(=CC1=O)C2=O at 0.01 µM
lapatinib: CS(=O)(=O)CCNCc1ccc(-c2ccc3ncnc(Nc4ccc(OCc5cccc(F)c5)c(Cl)c4)c3c2)o1 at 4 µM
MK-2206: NC1(c2ccc(-c3nc4ccn5c(=O)[nH]nc5c4cc3-c3ccccc3)cc2)CCC1 at 2 µM
fingolimod: CCCCCCCCc1ccc(CCC(N)(CO)CO)cc1 at 10 µM
selumetinib: Cn1cnc2c(F)c(Nc3ccc(Br)cc3Cl)c(C(=O)NOCCO)cc21 at 0.075 µM
fludarabine: Nc1nc(F)nc2c1ncn2[C@@H]1O[C@H](CO)[C@@H](O)[C@@H]1O at 1 µM
KU-0063794: COc1ccc(-c2ccc3c(N4CCOCC4)nc(N4C[C@@H](C)O[C@@H](C)C4)nc3n2)cc1CO at 0.1 µM
NVP-BEZ235: Cn1c(=O)n(-c2ccc(C(C)(C)C#N)cc2)c2c3cc(-c4cnc5ccccc5c4)ccc3ncc21 at 0.02 µM
ruxolitinib: N#CC[C@H](C1CCCC1)n1cc(-c2ncnc3[nH]ccc23)cn1 at 5 µM
GW9662: O=C(Nc1ccccc1)c1cc([N+](=O)[O-])ccc1Cl at 10 µM
crizotinib: C[C@@H](Oc1cc(-c2cnn(C3CCNCC3)c2)cnc1N)c1c(Cl)ccc(F)c1Cl at 1 µM
SNS-314: O=C(Nc1cccc(Cl)c1)Nc1ncc(CCNc2ncnc3ccsc23)s1 at 0.004 µM
PD173074: CCN(CC)CCCCNc1ncc2cc(-c3cc(OC)cc(OC)c3)c(NC(=O)NC(C)(C)C)nc2n1 at 0.5 µM
dovitinib: CN1CCN(c2ccc3nc(-c4c(N)c5c(F)cccc5[nH]c4=O)[nH]c3c2)CC1 at 0.5 µM
NVP-TAE684: COc1cc(N2CCC(N3CCN(C)CC3)CC2)ccc1Nc1ncc(Cl)c(Nc2ccccc2S(=O)(=O)C(C)C)n1 at 0.4 µM
vismodegib: CS(=O)(=O)c1ccc(C(=O)Nc2ccc(Cl)c(-c3ccccn3)c2)c(Cl)c1 at 5 µM
BI-D1870: CC(C)CCN1c2nc(Nc3cc(F)c(O)c(F)c3)ncc2N(C)C(=O)C1C (centres undefined) at 1 µM
cediranib: COc1cc2c(Oc3ccc4[nH]c(C)cc4c3F)ncnc2cc1OCCCN1CCCC1 at 2 µM
temozolomide: Cn1nnc2c(C(N)=O)ncn2c1=O at 10 µM

Partner | G-361
BI-D1870 | 179
MK-2206 | 109
GW9662 | 141
AS-252424 | 51.4
temozolomide | 63.3
NVP-TAE684 | 122
GW2580 | 126
dasatinib | 92.0
dovitinib | 164
ruxolitinib | 174
fludarabine | 137
selumetinib | 239
tanespimycin | 98.6
GW0742 | 332
vatalanib | 170
sunitinib | 149
PD173074 | 132
lapatinib | 107
vismodegib | 44.0
KU-0063794 | 94.9
crizotinib | 125
fingolimod | 142
NVP-BEZ235 | 141
nutlin-3 | 103
everolimus | 141
embelin | 193
cediranib | 111
SNS-314 | 145
darinaparsin | 54.6

Once more, the final 4:

| Partner | G-361 |
|---|---|
| embelin | 193 |
| cediranib | 111 |
| SNS-314 | 145 |
| darinaparsin | 54.6 |

Values as published with doi:10.1371/journal.pone.0140310, rounded.